Library screen at single concentrations

The chains behind the UniProt entries cited, without tags or fusion partners. Residues count along the entry.
UniProt A4I591, 1-473: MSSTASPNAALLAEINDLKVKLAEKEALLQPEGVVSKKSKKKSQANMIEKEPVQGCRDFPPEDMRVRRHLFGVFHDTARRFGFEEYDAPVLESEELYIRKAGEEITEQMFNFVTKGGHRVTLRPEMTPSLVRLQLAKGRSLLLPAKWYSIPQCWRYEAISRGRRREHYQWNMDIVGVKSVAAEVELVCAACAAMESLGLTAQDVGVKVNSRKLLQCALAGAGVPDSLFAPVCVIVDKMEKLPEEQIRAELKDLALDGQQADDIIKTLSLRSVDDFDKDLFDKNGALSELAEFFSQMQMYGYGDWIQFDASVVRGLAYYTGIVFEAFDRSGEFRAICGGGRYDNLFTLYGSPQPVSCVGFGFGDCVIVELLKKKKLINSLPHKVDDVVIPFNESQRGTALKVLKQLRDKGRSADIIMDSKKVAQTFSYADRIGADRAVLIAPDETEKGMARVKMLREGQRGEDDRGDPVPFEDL

Toxoplasma: 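Assay of Toxoplasma gondii numbers, read through their beta-galactosidase reporter with a colour substrate. Tested at 10 µM. Higher reads as fewer parasites (inferred from which compounds were picked for retests). Of about 67,000 compounds tested this way, about 260 (0.38%) reached 50% or more in at least one test.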
LiHisRS: 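Histidine-tRNA ligase, Leishmania infantum (UniProt A4I591). Enzyme assay of histidyl-tRNA synthetase; the read-out is not stated. Compounds at 30 µM. Higher reads as stronger inhibition (inferred: compounds with an IC50 in retests scored well above the rest). The assay is labelled LdHisRS but filed under L. infantum. Of about 69,000 compounds tested this way, about 410 (0.6%) reached 50% or more in at least one test.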

The filed quantity is “Percent Effect” (%). The controls that fix the scale are not given in the record; negative values are as filed. Compounds were drawn at random from those tested, without regard to their results. A dash means the value is not listed here; it may have been measured.

| compound | Toxoplasma | LiHisRS |
|---|---|---|
| `Cc1nn(-c2ncnc3[nH]cnc23)c2c1C(C(C)C)CC(=O)N2` (stereo not given) | 0.5302 | 21.35 |
| `Cc1cnc2n1CCN(C)C21CCN(CC2CC2)CC1.O=C(O)C(F)(F)F.O=C(O)C(F)(F)F.O=C(O)C(F)(F)F` | -6.362 | - |
| `CN(C(=O)c1cccc(Cl)c1)C1CCN(c2ccccn2)CC1` | -11.73 | 15.04 |
| `O=C(NCCc1ccc(Cl)s1)NCc1nnc2n1CCCC2` | 6.828 | 9.649 |
| `O=C(O)[C@H]1OCC(=O)N(Cc2cccc(F)c2)[C@@H]1c1ccc(Cl)cc1` | 6.16 | 11.43 |
| `Cc1ccc(NS(=O)(=O)CC2=NC(=O)n3cccc3C2=O)cc1` | 3.825 | 0 |
| `COc1ccc2c(c1)CCCC2CC(=O)O` (stereo not given) | 8.285 | 13.73 |
| `NCC1Cc2cc(-c3cncc(C(=O)N4CCCCC4)n3)cc(F)c2O1` (stereo not given) | -3.917 | 5.128 |
| `[H][C@]12CC[C@]([H])(CN(C(=O)c3cccnc3)C1)N(C(=O)CN1CCOC1=O)C2` | 4.184 | - |
| `O=C(O)C(F)(F)F.O=C(c1ccoc1)N1CC[C@@H](N2CCOCC2)[C@@H]1Cc1ccccc1` | 0.4162 | - |
| `Cc1noc(C)c1CN1CCn2cc(CNc3ccccn3)nc2C1.O=C(O)C(F)(F)F.O=C(O)C(F)(F)F` | -9.442 | - |
| `Cc1nccc(C(=O)N2CCCC(c3cc(C(F)(F)F)[nH]n3)C2)n1` (stereo not given) | -25.11 | 12.73 |
| `COCCN1CCN(C(=O)c2ccc(C)cc2OC)[C@H]2CS(=O)(=O)C[C@H]21` | - | 19.18 |
| `COCCN(Cc1ccccc1)Cc1nc(-c2ccsc2)no1` | -2.21 | 10.92 |
| `O=C(NC[C@H]1OC[C@@H](NCc2ccccc2)[C@@H]1O)Nc1ccccc1` | 7.351 | 22.97 |
| `c1ccc(-c2noc3c2CN(CC2CC2)CC3)cc1` | -3.503 | 25 |
| `[H][C@]12CC[C@]([H])(CN(Cc3ccccn3)C1)N(Cc1snnc1C)C2` | 1.617 | - |
| `O=C(Cn1cc(Cl)cn1)N1CCCC(c2ccn[nH]2)C1` (stereo not given) | -16.77 | -0.6897 |
| `Cc1ccc(N2CCN(c3ccccc3C)CC2C)nn1` (stereo not given) | 6.183 | 19.74 |
| `CNC(=O)[C@@H]1C[C@H]2CN(Cc3c(C)noc3C)C[C@H]2N1C(C)C` | - | 16 |
| `F[C@@H]1CN(CC2CC2)C[C@@H]1OCc1nc2ncccc2[nH]1` | 15.91 | 20.27 |
| `O=C1CO[C@H]2CN(C3CCOCC3)C[C@H]2N1Cc1ccc(F)cc1` | - | 9.459 |
| `Cc1nccn1-c1ccc(C(=O)NCC(F)(F)F)nn1` | -9.304 | 12 |
| `CC(C)CNC(=O)CN1C=Nc2ccccc2S1(=O)=O` | -5.21 | 1.515 |
| `[H][C@]12CC(Cn3cccn3)N(C)[C@@]1([H])CCN(Cc1cnn(C)c1)C2` (stereo not given in full) | 24.57 | - |
| `CS(=O)(=O)N[C@@H]1CN(C(=O)c2ccccn2)C[C@@H]2CCCO[C@@H]21` | - | 15.6 |
| `CC(C)C(C)NC(=O)c1ncn2c1CN(C)S(=O)(=O)c1ccccc1-2` (stereo not given) | - | 22.34 |
| `O=C(NCc1ccc(Cl)cc1)N1CCN(CC(O)C2CC2)CC1` (stereo not given) | - | 19.18 |
| `CCCNC(=O)CNc1ccc(C(=O)N2CCCCC2C)cc1C` (stereo not given) | 0.1059 | -10.96 |
| `O=C(C1CCCC1)N1CCC2(CC1)COCCN2CC1CC1.O=C(O)C(F)(F)F` | 6.441 | - |
| `O=C(c1csc(I)c1)N1CCc2c(ncn2C2CC2)C1` | 7.22 | 17.24 |
| `Cc1ncc(C)c(N2CCCC(CO)(Cc3cccc(Cl)c3)C2)n1` (stereo not given) | 7.614 | 25.47 |
| `N#Cc1ccccc1CN1C[C@@H]2CC[C@H](C1)N(CC1CCC1)C2=O` | - | 34.4 |
| `c1csc(N2CCCN(Cc3noc(C4CC4)n3)CC2)n1` | 9.459 | 26.92 |
| `CC(C)c1cc(N2CCCC3(CCN(C)C3)C2)ncn1` (stereo not given) | 5.509 | 9.302 |
| `O=C(c1ccnnc1)N1C[C@@H]2OCCN(CCN3CCCC3)[C@@H]2C1` | - | 3.008 |
| `O=C(O)C(F)(F)F.[H][C@@]12C[C@H](c3nc(C)no3)CN(Cc3ccc(F)cc3)[C@]1([H])CCO2` | -22.25 | - |
| `O=C1CCC2(CCN(Cc3ccsc3)CC2)N1Cc1ccccc1` | -30.88 | 13.46 |
| `Cc1ccc(C(=O)Nc2nnc(CC(C)C)s2)c(-n2cnnn2)c1C` | -1.762 | 16.48 |
| `Cc1ccc(N2CCCC3(COCCN(c4ccccn4)C3)C2)nn1.O=C(O)C(F)(F)F` (stereo not given) | -5.909 | - |
| `O=C(O)C(F)(F)F.[H][C@@]12CCN(CC3CCCCC3)C[C@]1(C(=O)N1CCOCC1)CCO2` | -1.315 | - |
| `Fc1cccc(CN2CCC(c3noc(-c4cnccn4)n3)CC2)c1F` | 13.95 | 8.511 |
| `COCc1c(Cl)cccc1NC(=O)NCc1cccc(N(C)C)n1` | -38.64 | 5.479 |
| `CC(C)(C)n1ncc2c1NC(=O)CC2c1ccc(C#N)cc1` (stereo not given) | -4.439 | 25.97 |
| `CC(Cn1cccn1)NC(=O)Nc1nccs1` (stereo not given) | 4.023 | 5.479 |
| `CN1C(=O)CC(c2cnn(C)c2)C12CCN(CC1CCOCC1)CC2.O=C(O)C(F)(F)F` (stereo not given) | -3.957 | - |
| `CC(C)n1c(=O)nc2n1C(=O)N(c1ccc(Br)cc1)C2` | -20.58 | 10.53 |
| `CCN1CCN(C(=O)CCC2CCN(C(C)CSC)CC2)CC1` (stereo not given) | -18.75 | 3.39 |
| `Cc1cnn(CCNCc2nnc(C3CC3)o2)c1` | -3.003 | 15.62 |
| `COCCN1C2(CCN(CC3CC3)C2)c2ccccc2S1(=O)=O` (stereo not given) | - | 15.96 |
| `Cc1ccoc1C(=O)N1CCCc2c(c(=O)n(C)n2C)C1` | -0.7901 | -11.5 |
| `COCC1CC2(CCN(Cc3cnn(C)c3)CC2)CN1C(C)C.O=C(O)C(F)(F)F.O=C(O)C(F)(F)F` (stereo not given) | -2.316 | - |
| `[H][C@]12CC[C@]([H])(CN(Cc3ccccc3C#N)C1)N(CC(=O)N(C)C)C2=O` | 0.3244 | - |
| `COC(C)c1noc(CN(C)c2nccnc2C#N)n1` (stereo not given) | -1.84 | 16.42 |

Some entries from above, unchanged:

compound,Toxoplasma,LiHisRS
CC(C)c1cc(N2CCCC3(CCN(C)C3)C2)ncn1 (stereo not given),5.509,9.302
O=C(NC[C@H]1OC[C@@H](NCc2ccccc2)[C@@H]1O)Nc1ccccc1,7.351,22.97
Cc1nn(-c2ncnc3[nH]cnc23)c2c1C(C(C)C)CC(=O)N2 (stereo not given),0.5302,21.35
[H][C@]12CC[C@]([H])(CN(Cc3ccccc3C#N)C1)N(CC(=O)N(C)C)C2=O,0.3244,-
COCCN1C2(CCN(CC3CC3)C2)c2ccccc2S1(=O)=O (stereo not given),-,15.96
N#Cc1ccccc1CN1C[C@@H]2CC[C@H](C1)N(CC1CCC1)C2=O,-,34.4
COCCN(Cc1ccccc1)Cc1nc(-c2ccsc2)no1,-2.21,10.92

Source: ChEMBL document CHEMBL3988442, “University of Dundee, Small-Polar-MMV Screening Library” (2021).